According to publication PMC12663138:
No constants are given. Whether binding was seen depends on the method and setting. In cells and extracts the contact can be indirect. Some results given as binding are weak or reduced against the parent protein; the word gives no strength.

The chains behind the UniProt entries cited, without tags or fusion partners. Where a name states a change or a piece, a line headed by the entry shows the natural chain unless it says otherwise. Residues count along the entry.
UniProt Q13797: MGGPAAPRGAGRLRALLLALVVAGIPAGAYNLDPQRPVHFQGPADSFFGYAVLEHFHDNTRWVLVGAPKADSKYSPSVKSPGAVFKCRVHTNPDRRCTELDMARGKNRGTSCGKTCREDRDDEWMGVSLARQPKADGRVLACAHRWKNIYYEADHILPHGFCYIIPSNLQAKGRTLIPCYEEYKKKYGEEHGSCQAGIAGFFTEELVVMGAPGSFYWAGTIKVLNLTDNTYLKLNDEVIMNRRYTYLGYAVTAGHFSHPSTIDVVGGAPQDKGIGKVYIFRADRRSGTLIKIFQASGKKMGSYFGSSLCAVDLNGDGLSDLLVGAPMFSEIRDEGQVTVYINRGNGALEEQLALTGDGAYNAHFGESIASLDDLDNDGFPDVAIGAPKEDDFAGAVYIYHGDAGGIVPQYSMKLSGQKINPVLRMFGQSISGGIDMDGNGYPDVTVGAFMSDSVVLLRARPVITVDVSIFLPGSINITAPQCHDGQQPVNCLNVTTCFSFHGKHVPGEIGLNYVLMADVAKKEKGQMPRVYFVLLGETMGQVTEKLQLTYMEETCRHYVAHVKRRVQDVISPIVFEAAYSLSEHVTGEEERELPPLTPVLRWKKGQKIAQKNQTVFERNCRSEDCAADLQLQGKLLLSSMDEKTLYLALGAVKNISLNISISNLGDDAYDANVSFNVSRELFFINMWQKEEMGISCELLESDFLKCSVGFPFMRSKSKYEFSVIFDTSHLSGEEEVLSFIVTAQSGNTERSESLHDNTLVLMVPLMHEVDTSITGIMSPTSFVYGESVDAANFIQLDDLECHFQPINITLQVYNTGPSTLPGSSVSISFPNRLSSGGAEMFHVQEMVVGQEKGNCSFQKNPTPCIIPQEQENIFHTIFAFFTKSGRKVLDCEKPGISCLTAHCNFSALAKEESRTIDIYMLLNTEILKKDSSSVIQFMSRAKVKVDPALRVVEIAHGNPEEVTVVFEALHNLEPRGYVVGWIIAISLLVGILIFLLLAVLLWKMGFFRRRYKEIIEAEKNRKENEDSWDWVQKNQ
UniProt P05556: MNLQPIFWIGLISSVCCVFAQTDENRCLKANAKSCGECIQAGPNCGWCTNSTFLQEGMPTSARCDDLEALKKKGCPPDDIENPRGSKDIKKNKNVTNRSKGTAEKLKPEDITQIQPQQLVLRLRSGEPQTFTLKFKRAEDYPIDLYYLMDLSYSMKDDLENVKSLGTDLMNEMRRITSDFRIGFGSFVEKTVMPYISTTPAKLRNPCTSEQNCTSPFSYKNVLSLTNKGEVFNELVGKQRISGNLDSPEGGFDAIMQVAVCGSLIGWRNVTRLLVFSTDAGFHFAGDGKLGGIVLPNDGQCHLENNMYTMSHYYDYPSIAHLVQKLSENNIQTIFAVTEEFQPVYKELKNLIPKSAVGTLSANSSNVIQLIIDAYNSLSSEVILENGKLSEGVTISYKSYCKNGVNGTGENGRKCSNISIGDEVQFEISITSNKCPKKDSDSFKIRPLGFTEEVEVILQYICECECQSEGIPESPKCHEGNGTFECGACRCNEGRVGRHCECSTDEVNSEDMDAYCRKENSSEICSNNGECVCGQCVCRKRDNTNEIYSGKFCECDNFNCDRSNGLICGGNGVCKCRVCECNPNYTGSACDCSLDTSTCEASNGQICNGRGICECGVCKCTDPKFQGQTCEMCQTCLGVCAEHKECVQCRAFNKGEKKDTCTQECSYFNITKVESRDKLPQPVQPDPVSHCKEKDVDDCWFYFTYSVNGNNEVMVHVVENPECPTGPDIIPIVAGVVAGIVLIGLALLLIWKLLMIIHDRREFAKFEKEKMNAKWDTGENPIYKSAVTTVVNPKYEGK
UniProt Q4LDE5, residues 18-3571: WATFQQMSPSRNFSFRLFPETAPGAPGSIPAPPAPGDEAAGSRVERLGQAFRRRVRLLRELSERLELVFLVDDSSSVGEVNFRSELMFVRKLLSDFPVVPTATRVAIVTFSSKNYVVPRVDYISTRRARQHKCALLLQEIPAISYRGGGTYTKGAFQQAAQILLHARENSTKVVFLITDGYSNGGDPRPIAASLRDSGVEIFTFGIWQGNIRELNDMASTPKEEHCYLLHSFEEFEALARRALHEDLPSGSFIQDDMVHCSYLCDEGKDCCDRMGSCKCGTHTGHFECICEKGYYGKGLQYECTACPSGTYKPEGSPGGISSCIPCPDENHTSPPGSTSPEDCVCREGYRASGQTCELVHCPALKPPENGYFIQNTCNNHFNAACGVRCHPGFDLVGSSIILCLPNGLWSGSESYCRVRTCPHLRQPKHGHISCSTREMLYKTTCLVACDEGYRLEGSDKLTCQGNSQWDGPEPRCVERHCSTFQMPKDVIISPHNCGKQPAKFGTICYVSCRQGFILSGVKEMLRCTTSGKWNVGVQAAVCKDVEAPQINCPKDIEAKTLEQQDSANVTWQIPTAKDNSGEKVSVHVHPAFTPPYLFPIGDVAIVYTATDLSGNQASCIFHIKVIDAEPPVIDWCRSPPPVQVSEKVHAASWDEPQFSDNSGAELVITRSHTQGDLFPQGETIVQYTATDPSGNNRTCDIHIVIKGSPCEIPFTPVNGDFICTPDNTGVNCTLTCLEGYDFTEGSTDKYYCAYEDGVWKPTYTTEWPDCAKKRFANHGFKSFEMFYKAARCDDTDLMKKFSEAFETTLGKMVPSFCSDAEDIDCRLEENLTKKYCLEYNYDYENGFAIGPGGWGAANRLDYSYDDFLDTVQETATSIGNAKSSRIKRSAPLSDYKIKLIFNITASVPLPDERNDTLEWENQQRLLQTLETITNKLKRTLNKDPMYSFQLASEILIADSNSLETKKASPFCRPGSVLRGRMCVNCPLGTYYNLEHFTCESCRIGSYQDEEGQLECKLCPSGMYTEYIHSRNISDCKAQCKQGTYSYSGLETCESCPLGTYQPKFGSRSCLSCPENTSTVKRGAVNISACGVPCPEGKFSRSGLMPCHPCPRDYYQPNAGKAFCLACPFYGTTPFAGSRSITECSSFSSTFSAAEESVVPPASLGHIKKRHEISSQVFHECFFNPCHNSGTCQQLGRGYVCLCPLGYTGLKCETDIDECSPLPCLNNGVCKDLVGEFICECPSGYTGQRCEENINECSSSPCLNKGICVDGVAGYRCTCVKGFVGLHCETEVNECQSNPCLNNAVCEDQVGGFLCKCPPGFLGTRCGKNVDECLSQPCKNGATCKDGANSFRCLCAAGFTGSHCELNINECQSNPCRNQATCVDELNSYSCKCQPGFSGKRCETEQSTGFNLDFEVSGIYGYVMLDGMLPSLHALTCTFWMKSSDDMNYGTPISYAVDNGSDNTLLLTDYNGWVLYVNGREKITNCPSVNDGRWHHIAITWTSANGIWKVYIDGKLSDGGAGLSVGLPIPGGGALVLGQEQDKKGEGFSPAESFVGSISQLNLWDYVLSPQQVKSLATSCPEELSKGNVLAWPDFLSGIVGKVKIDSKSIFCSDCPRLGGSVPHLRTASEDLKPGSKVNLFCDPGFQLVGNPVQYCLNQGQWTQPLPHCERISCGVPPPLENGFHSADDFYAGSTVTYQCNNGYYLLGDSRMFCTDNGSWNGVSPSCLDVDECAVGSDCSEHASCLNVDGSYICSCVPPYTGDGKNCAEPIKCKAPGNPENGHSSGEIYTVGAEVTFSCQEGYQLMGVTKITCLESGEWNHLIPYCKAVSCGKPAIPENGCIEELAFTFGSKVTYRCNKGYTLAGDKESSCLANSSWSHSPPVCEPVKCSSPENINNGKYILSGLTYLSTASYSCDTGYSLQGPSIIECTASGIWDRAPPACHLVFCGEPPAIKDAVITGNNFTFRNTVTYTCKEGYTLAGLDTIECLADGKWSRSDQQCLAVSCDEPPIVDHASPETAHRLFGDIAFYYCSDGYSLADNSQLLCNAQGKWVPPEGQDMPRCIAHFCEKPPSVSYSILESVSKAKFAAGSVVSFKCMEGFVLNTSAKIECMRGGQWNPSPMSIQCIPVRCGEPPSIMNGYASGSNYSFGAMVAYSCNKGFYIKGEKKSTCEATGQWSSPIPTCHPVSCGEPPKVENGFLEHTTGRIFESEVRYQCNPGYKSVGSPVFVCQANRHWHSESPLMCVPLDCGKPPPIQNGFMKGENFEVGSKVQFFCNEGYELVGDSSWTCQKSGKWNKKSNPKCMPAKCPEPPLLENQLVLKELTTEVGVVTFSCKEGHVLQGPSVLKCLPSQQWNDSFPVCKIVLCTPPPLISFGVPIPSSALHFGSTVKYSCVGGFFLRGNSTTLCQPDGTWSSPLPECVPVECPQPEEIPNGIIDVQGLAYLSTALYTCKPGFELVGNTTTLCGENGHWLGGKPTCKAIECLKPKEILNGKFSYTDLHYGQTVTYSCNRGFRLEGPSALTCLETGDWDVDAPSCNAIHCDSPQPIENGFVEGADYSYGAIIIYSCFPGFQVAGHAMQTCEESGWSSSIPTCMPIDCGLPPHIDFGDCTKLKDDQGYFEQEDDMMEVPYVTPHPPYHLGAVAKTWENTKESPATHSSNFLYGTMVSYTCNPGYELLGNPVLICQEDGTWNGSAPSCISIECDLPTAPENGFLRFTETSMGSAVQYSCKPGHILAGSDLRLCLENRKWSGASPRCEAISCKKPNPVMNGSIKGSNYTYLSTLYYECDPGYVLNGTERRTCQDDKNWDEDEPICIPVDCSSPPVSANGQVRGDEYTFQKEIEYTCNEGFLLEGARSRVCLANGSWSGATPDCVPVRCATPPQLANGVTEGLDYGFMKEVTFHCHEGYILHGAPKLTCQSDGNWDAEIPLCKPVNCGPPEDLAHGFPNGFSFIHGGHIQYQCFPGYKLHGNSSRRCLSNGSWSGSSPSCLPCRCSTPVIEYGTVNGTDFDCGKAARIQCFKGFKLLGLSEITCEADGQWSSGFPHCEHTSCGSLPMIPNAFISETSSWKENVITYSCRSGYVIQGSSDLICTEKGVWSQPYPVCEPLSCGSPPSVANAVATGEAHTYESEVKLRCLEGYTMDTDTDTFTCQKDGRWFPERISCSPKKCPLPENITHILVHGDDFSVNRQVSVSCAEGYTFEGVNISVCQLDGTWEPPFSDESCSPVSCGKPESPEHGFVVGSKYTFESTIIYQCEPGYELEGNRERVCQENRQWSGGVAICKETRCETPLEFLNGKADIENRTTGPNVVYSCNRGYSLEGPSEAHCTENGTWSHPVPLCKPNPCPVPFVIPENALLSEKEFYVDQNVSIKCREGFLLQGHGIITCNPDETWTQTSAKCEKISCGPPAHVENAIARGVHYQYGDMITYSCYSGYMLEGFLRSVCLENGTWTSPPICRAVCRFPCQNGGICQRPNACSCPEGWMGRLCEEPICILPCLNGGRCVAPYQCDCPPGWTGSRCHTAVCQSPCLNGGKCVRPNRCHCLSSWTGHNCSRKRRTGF

Target: integrin α9β1 (human (endogenous in RBE)) (UniProt Q13797+P05556)
Assay: co-IP; endogenous proteins; RBE cell lysates incubated overnight at 4 °C with the antibodies on a rotator, Protein A/G Dynabeads, normal IgG control, SDS-PAGE and immunoblotting

For “SVEP1 (sushi, Von Willebrand factor type A, EGF, and pentaxin) (from UniProt Q4LDE5 18-3571)”, the binding was “binds”.
